# Measured values published in article PMC3718806, “Inhibition of Histone Deacetylase 3 Causes Replication Stress in Cutaneous T Cell Lymphoma” (PLoS ONE, 2013).
# The chains behind the UniProt entries cited, without tags or fusion partners.
# UniProt O15379: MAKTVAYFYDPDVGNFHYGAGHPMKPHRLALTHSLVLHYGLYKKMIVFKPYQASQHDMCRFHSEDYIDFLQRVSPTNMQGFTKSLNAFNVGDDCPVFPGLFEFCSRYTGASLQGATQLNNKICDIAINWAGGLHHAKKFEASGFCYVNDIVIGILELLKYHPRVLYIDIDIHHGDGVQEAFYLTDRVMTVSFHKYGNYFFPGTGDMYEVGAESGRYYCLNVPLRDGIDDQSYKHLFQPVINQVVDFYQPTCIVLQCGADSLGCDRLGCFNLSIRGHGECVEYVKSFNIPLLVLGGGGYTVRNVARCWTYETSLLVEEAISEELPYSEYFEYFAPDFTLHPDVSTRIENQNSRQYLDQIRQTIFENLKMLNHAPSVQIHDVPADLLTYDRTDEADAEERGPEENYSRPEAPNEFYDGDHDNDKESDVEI
# UniProt P12004: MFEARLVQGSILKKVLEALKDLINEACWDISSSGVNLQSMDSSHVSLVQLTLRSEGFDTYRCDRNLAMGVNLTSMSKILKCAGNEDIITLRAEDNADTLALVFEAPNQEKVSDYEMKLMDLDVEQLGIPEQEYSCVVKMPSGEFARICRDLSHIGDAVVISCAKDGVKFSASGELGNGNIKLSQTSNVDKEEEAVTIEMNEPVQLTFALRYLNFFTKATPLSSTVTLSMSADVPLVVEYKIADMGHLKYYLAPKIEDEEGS
# UniProt Q09028: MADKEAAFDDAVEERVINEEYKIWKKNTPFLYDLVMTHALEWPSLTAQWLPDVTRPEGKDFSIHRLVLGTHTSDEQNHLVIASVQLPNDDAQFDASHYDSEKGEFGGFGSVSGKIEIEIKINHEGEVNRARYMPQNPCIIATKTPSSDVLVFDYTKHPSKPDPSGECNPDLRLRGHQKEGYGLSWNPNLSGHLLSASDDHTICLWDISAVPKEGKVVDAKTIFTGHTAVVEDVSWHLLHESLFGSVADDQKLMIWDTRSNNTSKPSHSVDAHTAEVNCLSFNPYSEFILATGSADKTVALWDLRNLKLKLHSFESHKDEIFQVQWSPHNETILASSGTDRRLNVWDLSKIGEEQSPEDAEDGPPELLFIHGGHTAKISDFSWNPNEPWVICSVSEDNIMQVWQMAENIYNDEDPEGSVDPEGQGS
# Results are given in words; binding and its absence hold for the method and conditions named. For some assays here: In cells and extracts the contact can be indirect. Some results given as binding are weak or reduced against the parent protein; the word gives no strength.
# Legend:
# [1] = biological target: histone deacetylase 3 (human (endogenous in HeLa)) (UniProt O15379); experiment: SEC; soluble chromatin (legend: nuclear lysates) from HeLa cells on Superose 6 10/300 GL; 0.5 ml fractions, trichloroacetic acid precipitated, western blot
# [2] = biological target: histone deacetylase 3 (human (endogenous in HeLa)) (UniProt O15379); experiment: co-IP; endogenous HDAC3 and RbAp48 from HeLa cells; two different HDAC3 antibodies (A, B); rabbit IgG as negative control
binding [1],binding [2],Substance
no binding,–,PCNA (from UniProt P12004 1-261)
–,binds,RbAp48 (from UniProt Q09028 1-425)
